{"sequences": {"note": "Amino acid sequences for entries named in this document (tags omitted). A change or cut given only in a name is not applied to a line headed by its entry.", "UniProt Q9NP81": "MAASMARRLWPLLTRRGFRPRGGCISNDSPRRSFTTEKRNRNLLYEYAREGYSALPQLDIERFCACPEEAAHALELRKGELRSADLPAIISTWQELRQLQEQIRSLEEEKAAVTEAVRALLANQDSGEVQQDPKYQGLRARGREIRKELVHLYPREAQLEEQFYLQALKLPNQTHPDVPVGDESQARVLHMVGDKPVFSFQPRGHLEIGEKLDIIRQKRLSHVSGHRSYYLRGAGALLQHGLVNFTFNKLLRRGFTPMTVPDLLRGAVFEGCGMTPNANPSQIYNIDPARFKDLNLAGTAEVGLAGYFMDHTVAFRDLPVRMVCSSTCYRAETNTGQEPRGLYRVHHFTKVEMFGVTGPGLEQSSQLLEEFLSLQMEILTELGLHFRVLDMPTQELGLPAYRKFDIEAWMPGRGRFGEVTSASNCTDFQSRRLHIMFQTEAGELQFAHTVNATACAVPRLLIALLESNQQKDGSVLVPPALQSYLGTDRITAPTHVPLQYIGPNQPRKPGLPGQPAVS"}, "source": "the supplement of paper PMC11732987", "about": "“Enantioselective OTUD7B fragment discovery through chemoproteomics screening and high-throughput optimisation” (Communications Chemistry, 2025)", "note": "The other results are listed elsewhere or left out. The data scatter; read single values as rough.", "data": [{"molecular_target": "SARS2 C425 (UniProt Q9NP81)", "assay": "log2 mean competition ratio of IA-DTB cysteine labelling (DMSO/compound) (log2 ratio); higher = stronger cysteine engagement by compound", "conditions": "50 µM; treatment time: 4 h; cell line lysate: HEK293T", "experimental": "(§1)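 IA-DTB competitive cysteine chemoproteomics in HEK293T RIPA lysate. Lysates were treated with compound 29 or 30 at 50 or 200 µM for 4 h, then IA-DTB (500 µM, 1 h), trypsin-digested, NeutrAvidin-enriched and analysed by diaPASEF. Competition ratio = intensity DMSO / intensity compound (n=4 treated, n=64 DMSO); binding: mean log2 CR ≥ 1 and p ≤ 0.05 plus QC filters. Target is the cysteine site.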", "values": [{"smiles": "O=C(CCl)N[C@@H]1CCCc2ccccc21", "log2 mean competition ratio": -0.145}, {"smiles": "O=C(CCl)N[C@H]1CCCc2ccccc21", "log2 mean competition ratio": 0.0812}]}, {"molecular_target": "SARS2 C425 (UniProt Q9NP81)", "assay": "log2 mean competition ratio of IA-DTB cysteine labelling (DMSO/compound) (log2 ratio); higher = stronger cysteine engagement by compound", "conditions": "200 µM; treatment time: 4 h; cell line lysate: HEK293T", "experimental": "as §1", "values": [{"smiles": "O=C(CCl)N[C@@H]1CCCc2ccccc21", "log2 mean competition ratio": 0.0494}, {"smiles": "O=C(CCl)N[C@H]1CCCc2ccccc21", "log2 mean competition ratio": -0.184}]}]}
